Drugs:
vismodegib, 5000 nM: CS(=O)(=O)c1ccc(C(=O)Nc2ccc(Cl)c(-c3ccccn3)c2)c(Cl)c1
vatalanib, 10000 nM: Clc1ccc(Nc2nnc(Cc3ccncc3)c3ccccc23)cc1
dasatinib, 20 nM: Cc1nc(Nc2ncc(C(=O)Nc3c(C)cccc3Cl)s2)cc(N2CCN(CCO)CC2)n1
NVP-BEZ235, 20 nM: Cn1c(=O)n(-c2ccc(C(C)(C)C#N)cc2)c2c3cc(-c4cnc5ccccc5c4)ccc3ncc21
PLX4720, 400 nM: CCCS(=O)(=O)Nc1ccc(F)c(C(=O)c2c[nH]c3ncc(Cl)cc23)c1F
pazopanib, 2000 nM: Cc1ccc(Nc2nccc(N(C)c3ccc4c(C)n(C)nc4c3)n2)cc1S(N)(=O)=O
everolimus, 100 nM: CO[C@H]1C[C@@H]2CC[C@@H](C)[C@@](O)(O2)C(=O)C(=O)N2CCCC[C@H]2C(=O)O[C@H]([C@H](C)C[C@@H]2CC[C@@H](OCCO)[C@H](OC)C2)CC(=O)[C@H](C)/C=C(\C)[C@@H](O)[C@@H](OC)C(=O)[C@H](C)C[C@H](C)/C=C/C=C/C=C/1C
darinaparsin, 2000 nM: C[As](C)SC[C@H](NC(=O)CC[C@H](N)C(=O)O)C(=O)NCC(=O)O
etoposide, 100 nM: COc1cc([C@@H]2c3cc4c(cc3[C@@H](O[C@@H]3O[C@@H]5CO[C@@H](C)O[C@H]5[C@H](O)[C@H]3O)[C@H]3COC(=O)[C@H]23)OCO4)cc(OC)c1O
JZL184, 5000 nM: O=C(Oc1ccc([N+](=O)[O-])cc1)N1CCC(C(O)(c2ccc3c(c2)OCO3)c2ccc3c(c2)OCO3)CC1

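Human melanoma cells were exposed to two drugs together for 72 h in 1,536-well plates and read by automated microscopy after fixing and staining. Each value is the cleaved-PARP-positive fraction of nuclei relative to DMSO-treated wells, in %, so that 100 equals the control and higher values mean more apoptosis. Concentrations were fixed for each drug; these are the higher of two levels. No replicate spread is given; individual values may be noisy. The marker varies much from line to line, for technical or biological reasons.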 This is part of the screen, not chosen by result.

| Combination | RVH-421 |
|---|---|
| darinaparsin + JZL184 | 116 |
| etoposide + PLX4720 | 66.7 |
| NVP-BEZ235 + dasatinib | 212 |
| etoposide + everolimus | 29.6 |
| JZL184 + vismodegib | 67.0 |
| etoposide + JZL184 | 183 |
| NVP-BEZ235 + PLX4720 | 148 |
| NVP-BEZ235 + vatalanib | 148 |
| vatalanib + darinaparsin | 170 |
| vatalanib + everolimus | 413 |
| everolimus + NVP-BEZ235 | 219 |
| darinaparsin + etoposide | 118 |
| NVP-BEZ235 + darinaparsin | 76.6 |
| JZL184 + PLX4720 | 489 |
| JZL184 + pazopanib | 231 |
| vismodegib + pazopanib | 43.3 |
| dasatinib + vismodegib | 72.0 |
| dasatinib + JZL184 | 156 |
| vismodegib + PLX4720 | 132 |
| JZL184 + NVP-BEZ235 | 132 |
| pazopanib + PLX4720 | 65.0 |
| vatalanib + pazopanib | 91.8 |
| darinaparsin + vismodegib | 66.5 |
| pazopanib + everolimus | 258 |
| JZL184 + vatalanib | 195 |
| NVP-BEZ235 + vismodegib | 49.2 |
| pazopanib + etoposide | 80.6 |
| PLX4720 + everolimus | 269 |
| dasatinib + pazopanib | 260 |
| vismodegib + etoposide | 45.9 |
| everolimus + darinaparsin | 138 |
| etoposide + dasatinib | 78.9 |
| pazopanib + NVP-BEZ235 | 243 |
| darinaparsin + dasatinib | 131 |
| vismodegib + everolimus | 236 |
| etoposide + vatalanib | 213 |
| PLX4720 + darinaparsin | 89.6 |
| vatalanib + PLX4720 | 121 |

4 of the entries, repeated:

- vismodegib + everolimus : RVH-421: 236
- vismodegib + etoposide : RVH-421: 45.9
- PLX4720 + darinaparsin : RVH-421: 89.6
- PLX4720 + everolimus : RVH-421: 269

Values as published with doi:10.1371/journal.pone.0140310, rounded.